{
  "sequences": {"note": "Chains of the proteins cited; added tags and fusions are not shown. Lines headed by an entry give the natural chain unless they say otherwise; changes in a name come on top.", "UniProt Q9Y3D6": "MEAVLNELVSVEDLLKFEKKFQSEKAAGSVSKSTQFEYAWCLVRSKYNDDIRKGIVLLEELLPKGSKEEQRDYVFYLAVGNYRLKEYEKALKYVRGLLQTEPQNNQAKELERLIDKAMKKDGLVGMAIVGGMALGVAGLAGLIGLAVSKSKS", "UniProt O00429": "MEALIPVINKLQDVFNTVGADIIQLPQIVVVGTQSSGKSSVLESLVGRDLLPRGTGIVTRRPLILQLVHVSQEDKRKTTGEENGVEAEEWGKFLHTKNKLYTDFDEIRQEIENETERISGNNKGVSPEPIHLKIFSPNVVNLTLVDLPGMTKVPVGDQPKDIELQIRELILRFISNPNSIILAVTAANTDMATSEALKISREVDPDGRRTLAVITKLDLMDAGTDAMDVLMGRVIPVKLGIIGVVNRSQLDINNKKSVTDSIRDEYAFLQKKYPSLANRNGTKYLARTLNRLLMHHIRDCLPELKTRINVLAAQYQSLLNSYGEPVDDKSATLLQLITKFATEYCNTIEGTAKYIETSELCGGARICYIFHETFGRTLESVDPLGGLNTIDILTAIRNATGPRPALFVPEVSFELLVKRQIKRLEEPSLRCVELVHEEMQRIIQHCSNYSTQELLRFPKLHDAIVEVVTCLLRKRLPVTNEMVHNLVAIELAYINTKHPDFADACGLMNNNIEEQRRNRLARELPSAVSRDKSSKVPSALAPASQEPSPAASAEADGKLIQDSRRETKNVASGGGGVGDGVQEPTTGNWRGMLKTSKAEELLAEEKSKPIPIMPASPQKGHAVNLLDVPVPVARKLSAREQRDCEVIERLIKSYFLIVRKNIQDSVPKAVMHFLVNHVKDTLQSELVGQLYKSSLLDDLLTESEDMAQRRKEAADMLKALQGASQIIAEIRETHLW"},
  "source": "paper PMC9202214",
  "key": {"[1]": {"target": "Fis1 phosphorylation-mimetic mutant (Fis1^T34D) (UniProt Q9Y3D6)", "assay": "co-IP; HCAEC lysates (50 mM Tris-HCl pH 8.0, 150 mM NaCl, 1 mM EDTA, 1% Triton X-100, 0.5% sodium deoxycholate) incubated with Protein G-agarose beads and the indicated antibodies overnight at 4 °C, immunoblot; cells subjected to sI/R injury, with or without empagliflozin (10 µM, 12 h before), with or without transfection of Drp1^S616D or Fis1^T34D; which protein was precipitated is not told"}, "[2]": {"target": "mitochondrial fission 1 protein (human (endogenous in HCAECs)) (UniProt Q9Y3D6)", "assay": "co-IP; HCAEC lysates (50 mM Tris-HCl pH 8.0, 150 mM NaCl, 1 mM EDTA, 1% Triton X-100, 0.5% sodium deoxycholate) incubated with Protein G-agarose beads and the indicated antibodies overnight at 4 °C, immunoblot; cells subjected to sI/R injury, with or without empagliflozin (10 µM, 12 h before), with or without transfection of Drp1^S616D or Fis1^T34D; which protein was precipitated is not told"}},
  "note": "Results are given in words; binding and its absence hold for the method and conditions named. Binding seen in cells or lysates may run through a third protein. Some results given as binding are weak or reduced against the parent protein; the word gives no strength.",
  "data": [
    {"substance": "dynamin-related protein 1 (from UniProt O00429 1-736)", "values": [
      {"measurement": "binding", "setting": "[1]", "value": "binds"},
      {"measurement": "binding", "setting": "[2]", "value": "binds"}
    ]}
  ]
}
